In patent publication US20230003720A1 (priority 2016, published 2023):
At least one structure is not confirmed: it was looked up by name or label, or the drawing left a doubt.

Key:
mOR18-2 = molecular target: T1, mOR18-2 (Mus musculus, UniProt Q8VBV9); type: cell-based
T1 construct: expressed in transfected cells
T1 sequence (Q8VBV9 1-320): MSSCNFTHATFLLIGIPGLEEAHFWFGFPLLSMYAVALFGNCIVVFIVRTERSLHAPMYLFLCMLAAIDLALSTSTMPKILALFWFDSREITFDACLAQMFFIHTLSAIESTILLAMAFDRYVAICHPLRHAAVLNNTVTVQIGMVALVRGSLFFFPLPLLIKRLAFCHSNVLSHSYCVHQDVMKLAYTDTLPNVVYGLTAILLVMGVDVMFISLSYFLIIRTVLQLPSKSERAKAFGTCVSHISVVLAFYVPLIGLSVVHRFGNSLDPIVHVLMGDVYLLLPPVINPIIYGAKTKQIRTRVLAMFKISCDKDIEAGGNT

mOR178-1 = type: cell-based, mouse
mOR18-1 = type: cell-based, Mus musculus
OR2W1 = molecular target: T2, OR2W1 (Homo sapiens, UniProt Q9Y3N9); type: cell-based
T2 construct: expressed in transfected cells
T2 sequence (Q9Y3N9 1-320): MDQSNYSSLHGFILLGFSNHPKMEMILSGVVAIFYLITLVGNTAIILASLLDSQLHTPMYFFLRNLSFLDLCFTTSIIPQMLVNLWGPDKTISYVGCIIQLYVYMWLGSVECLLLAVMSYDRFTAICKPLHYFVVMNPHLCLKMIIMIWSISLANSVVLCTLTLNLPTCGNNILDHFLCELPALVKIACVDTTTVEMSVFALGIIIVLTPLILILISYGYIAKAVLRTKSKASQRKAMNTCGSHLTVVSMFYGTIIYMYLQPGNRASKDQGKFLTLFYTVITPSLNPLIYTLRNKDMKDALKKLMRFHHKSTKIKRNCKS

Measured: receptor response as measured levels of luminescence

COC(=O)[C@H]1[C@@H](OC(=O)c2ccccc2)C[C@@H]2CC[C@H]1N2C [cocaine]
responded: all assays above
